Source: patent US11559517B2, “Promotion of epithelial repair” (Telethon Kids Institute, priority 2018, dated 2023)
Some results were stated once for a whole list of compounds, not compound by compound. For some of these results: At least one structure is not confirmed: it was looked up by name or label, or the drawing left a doubt.

Assays:
[1] = system: pAEC from non-asthmatic children; assay: Scratch wound repair assay (wound closure), pAEC from non-asthmatic children; type: cell-based, human; settings: 10 μM; 48 hours post wounding
Description: (§1) Two in vitro scratch wound models were used. […] Wound closure was calculated through image analysis by the accompanying live-cell imaging system (Essen Bioscience, Ann Arbor, Mich., USA).
(§2) To assess in vitro wound repair kinetics, linear scratch wounds were created using a commercial monolayer wounding kit. Once confluent, cell cultures were placed in starvation media (BEGM™ without epidermal growth factor) for about 24 hours prior to wounding. At the time of wounding, cell cultures were treated with compound dilution (10 μM), DMSO vehicle (0.05% v/v) or untreated. Wound closure rates were calculated through image analysis by the accompanying live-cell imaging system (Essen Bioscience, Ann Arbor, Mich., USA).

[2] = system: pAEC from asthmatic children; assay: Scratch wound repair assay (wound closure), pAEC from asthmatic children; type: cell-based, human; settings: 10 μM; 48 hours treatment post wounding
Description: as §1, §2

Row | Structure (SMILES) | negative effect on wound repair compared to DMSO vehicle [1] | accelerated repair compared to DMSO vehicle [2] | increased wound closure compared to DMSO vehicle [1]
1 | NS(=O)(=O)c1ccccc1 [Compound C2, Benzenesulfonamide] | 10-25% | – | –
2 | NS(=O)(=O)c1ccc(-n2nc(C(F)(F)F)cc2-c2ccc(Cl)cc2)cc1 [Compound C18, 4-[5-(4-chlorophenyl)-3-(trifluoromethyl)-1H-pyrazol-1-yl] benzenesulfonamide] | – | at least 140% | –
3 | COc1ccc(-n2nc(C(F)(F)F)cc2-c2ccc(Cl)cc2)cc1 [Compound C1, 5-(4-Chlorophenyl)-1-(4-methoxyphenyl)-3-trifluoromethyl pyrazole] | – | at least 140% | at least 20%
